{"source": "PubChem BioAssay AID743454 – Peter MacCallum Cancer Centre | 2014", "purpose": "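Genes whose loss kills vorinostat-resistant colon cancer cells under vorinostat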 (primary screen)", "cell system": "human HCT116-VR colon cancer cells, selected for vorinostat resistance", "reagents": "siRNA pool against human genes, 40 nM siRNA pool", "duration": "vorinostat for 24 h, read-out about 72 h after transfection", "challenge": "vorinostat at 2.5 µM final", "read-out": "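Cell viability by CellTiter-Fluor and caspase 3/7 activity by luminescence, each scaled to mock wells per plate, duplicates averaged, then robust z-scored over all plates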", "direction": "viability robust z-score: higher = more viable cells than screen typical; caspase robust z-score: higher = more caspase 3/7 activity than screen typical", "rule for the call": "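Hits are knock-downs in viability class RV1/RV2 or caspase class CA1/CA2, excluding ones that killed cells in the no-drug cell-count arm; hits then retested with single siRNAs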", "note": "The whole screen tested about 18,000 reagents; shown is a random part of them. Over the whole deposit, 450 (2.5%) were called active. 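Single biological run; no consistent viability z cut-off exists, so the class columns, not z-scores, define the calls.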 Entries without a mark were called inactive."}
The opening 2 entries, to show the layout:
{"gene": "DCAF4L1 (GeneID 285429)", "viability hit class": "no change", "caspase hit class": "no change", "viability robust z-score": 0.58, "caspase robust z-score": 0.33}
{"gene": "HMGN2 (GeneID 3151)", "viability hit class": "no change", "caspase hit class": "no change", "viability robust z-score": -4.74, "caspase robust z-score": 1.41}

Main list, repeating the preview:
{"gene": "DCAF4L1 (GeneID 285429)", "viability hit class": "no change", "caspase hit class": "no change", "viability robust z-score": 0.58, "caspase robust z-score": 0.33}
{"gene": "HMGN2 (GeneID 3151)", "viability hit class": "no change", "caspase hit class": "no change", "viability robust z-score": -4.74, "caspase robust z-score": 1.41}
{"gene": "ADAMTS18 (GeneID 170692)", "viability hit class": "no change", "caspase hit class": "no change", "viability robust z-score": 0.22, "caspase robust z-score": -0.73}
{"gene": "PLOD3 (GeneID 8985)", "viability hit class": "no change", "caspase hit class": "no change", "viability robust z-score": -1.9, "caspase robust z-score": -0.05}
{"gene": "RRBP1 (GeneID 6238)", "viability hit class": "no change", "caspase hit class": "no change", "viability robust z-score": 0.68, "caspase robust z-score": -1.11}
{"gene": "CABIN1 (GeneID 23523)", "viability hit class": "no change", "caspase hit class": "no change", "viability robust z-score": 0.44, "caspase robust z-score": -0.01}
{"gene": "SORCS3 (GeneID 22986)", "viability hit class": "no change", "caspase hit class": "no change", "viability robust z-score": 0.05, "caspase robust z-score": -1.08}
{"gene": "SNRPC (GeneID 6631)", "viability hit class": "no change", "caspase hit class": "no change", "viability robust z-score": -2.66, "caspase robust z-score": -1.09}
{"gene": "SLC4A1 (GeneID 6521)", "viability hit class": "no change", "caspase hit class": "no change", "viability robust z-score": 1.27, "caspase robust z-score": -0.07}
{"gene": "FOXS1 (GeneID 2307)", "viability hit class": "no change", "caspase hit class": "no change", "viability robust z-score": -0.85, "caspase robust z-score": 1.85}
{"gene": "AOX1 (GeneID 316)", "viability hit class": "no change", "caspase hit class": "no change", "viability robust z-score": -2.29, "caspase robust z-score": 2.71}
{"gene": "NEURL1 (GeneID 9148)", "viability hit class": "no change", "caspase hit class": "no change", "viability robust z-score": 0.2, "caspase robust z-score": -0.38}
{"gene": "TMEM52B (GeneID 120939)", "viability hit class": "no change", "caspase hit class": "no change", "viability robust z-score": -0.14, "caspase robust z-score": 2.75}
{"gene": "DNAI7 (GeneID 55259)", "viability hit class": "no change", "caspase hit class": "no change", "viability robust z-score": -1.9, "caspase robust z-score": 3.56}
{"gene": "ST3GAL4 (GeneID 6484)", "viability hit class": "no change", "caspase hit class": "no change", "viability robust z-score": -0.4, "caspase robust z-score": 0.72}
{"gene": "DPPA4 (GeneID 55211)", "viability hit class": "no change", "caspase hit class": "no change", "viability robust z-score": 0.73, "caspase robust z-score": -0.22}
{"gene": "CTAGE6 (GeneID 340307)", "viability hit class": "no change", "caspase hit class": "no change", "viability robust z-score": -0.44, "caspase robust z-score": 2.55}
{"gene": "SHBG (GeneID 6462)", "viability hit class": "no change", "caspase hit class": "no change", "viability robust z-score": -0.96, "caspase robust z-score": 0.1}
{"gene": "TERF2 (GeneID 7014)", "viability hit class": "no change", "caspase hit class": "no change", "viability robust z-score": -0.01, "caspase robust z-score": 0.96}
{"gene": "ZNF425 (GeneID 155054)", "viability hit class": "no change", "caspase hit class": "no change", "viability robust z-score": -0.16, "caspase robust z-score": 1.22}
{"gene": "TRIM16 (GeneID 10626)", "viability hit class": "no change", "caspase hit class": "no change", "viability robust z-score": 1.32, "caspase robust z-score": -1.4}
